Source: publication PMC9028331
Changes are numbered by the printed parent chain. In names and notes the source's numbering stands. Results are given in words; binding and its absence hold for the method and conditions named. Some entries that bind do so weakly or less than the wild type. One block for each binder: values may come before it.

Chains of the proteins cited; added tags and fusions are not shown.
UniProt P19073: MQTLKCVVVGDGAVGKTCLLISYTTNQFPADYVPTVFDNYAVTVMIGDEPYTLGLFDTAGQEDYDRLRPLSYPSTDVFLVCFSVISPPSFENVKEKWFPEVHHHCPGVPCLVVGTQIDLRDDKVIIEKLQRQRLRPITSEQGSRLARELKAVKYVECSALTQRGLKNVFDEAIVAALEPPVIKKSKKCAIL

Target: Cdc42p (S. cerevisiae) (UniProt P19073)
Assay: two-hybrid; yeast two-hybrid, activation of the reporter gene; which partner was bait is not stated

- binding: binds
B1: full-length Cla4p-S186E (protein, UniProt P48562 1-842)
chain: MSLSAAANKISDNDFQNIGPAPRPPSSNSQGRTCYNQTQPITKLMSQLDLTSASHLGTSTSKKKSGWVSYKDDGILSFIWQKRYLMLHDSYVALYKNDKQNDDAILKIPLTSIISVSRTQLKQYCFELVRCSDRNSVSSGSSSSLNVSSDSNSKKSIYIATKTESDLHSWLDAIFAKCPLLSGVSEPTNFTHKVHVGFDPETGSFVGMPTNWEKLLKHSRITGEDWNNNSAAVIQVLQFYQEYNGAGNPTNTLDKPQSGETSSSQKSLPNSYNDNKLRNNSVNSKSSSGVSSSMVSQRKTSQPPNTKSPVSLGSGSLPPINTKLPTSQSNIPRHLQNVPNQQYPKMRNGHSPTNGQFPRGPMHPNNSQRSLQQQQQQQQQQKQQHQQYPYHHQGPSPSPSPSPSPLNPYRPHHNMINPYSKQPQSPLSSQSTQNQAIPRYAQNSSPTAAHFQPQRTAPKPPISAPRAPYPSNQNATSNTHVQPVAPKNDQSTPQTMRQAPKRPDADVAQPGGVAKPKKPARPTMSTAEIMSKLKKVTVNADPSQCFKVIEKAGQGASGSVYLAERTHIPTESNMIELINNDIDEPHVGDKVAIKQMVLSKQPRKELIVNEILVMKDSRHKNIVNFLEAYLRTDDDLWVVMEFMEGGSLTDIIENSPTNDNSHSPLTEPQIAYIVRETCQGLKFLHDKHIIHRDIKSDNVLLDTRARVKITDFGFCARLTDKRSKRATMVGTPYWMAPEVVKQREYDEKIDVWSLGIMTIEMLEGEPPYLNEDPLKALYLIATNGTPKLKHPESLSLEIKRFLSVCLCVDVRYRASTEELLHHGFFNMACDPKDLTSLLEWKE

- binding: binds
B2: full-length Cla4p (protein, UniProt P48562 1-842)
chain: B1 chain with E186S
